Source: PubChem BioAssay AID1259308 (NCATS, 2017)
In all, the deposit lists about 59,000 reagents; this is a random part of them. In the full data, about 1,510 (2.6%) got an active call. 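Calls use total luciferase alone and ignore viability, so some active siRNAs may act by altering cell number.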 Unmarked entries are inactive. The numbers tell different reagents against one gene apart.

- Assay: 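Knock-downs that increase output of a recombinant reporter protein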 (primary screen)
- System: human HEK293 embryonic kidney cells stably expressing firefly luciferase (HEK-CMV-Luc2-Hygro)
- Reagents: single siRNA against human genes, 0.8 pmol siRNA per well
- Duration: 72 h
- Measured: 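Reporter luminescence and viable-cell signal on separate replicate plates, given as percent of non-targeting control and median/MAD z-scores, plus per-cell luciferase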
- Scale: total luciferase, z-score and total luciferase, % of control: higher = more reporter protein produced; luciferase per cell, z-score: higher = more reporter output per viable cell; viable cells, % of control: higher = more viable cells
- Active means: 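Active when the median/MAD z-score for overall luciferase is greater than 3; a gene was taken forward for validation with new siRNAs if at least two of its three siRNAs passed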
- Calls: active = raised luciferase; inactive = no rise

| gene | reagent | total luciferase, z-score | total luciferase, % of control | luciferase per cell, z-score | viable cells, % of control |
| --- | --- | --- | --- | --- | --- |
| FCGR2B | 1 | 1.09 | 104 | 0.109 | 113 |
| FCGR2B | 2 | 1.05 | 103 | 0.0793 | 112 |
| FCGR2B | 3 | -1.54 | 51.3 | -1.31 | 80.9 |
| PDGFB | 1 | 0.48 | 91.4 | -0.247 | 109 |
| PDGFB | 2 | -1.06 | 60.8 | -0.564 | 78.8 |
| PDGFB | 3 | 2.07 | 123 | 1.98 | 81.7 |
| OR5M11 | 1 | -0.268 | 76.6 | -0.00668 | 85.7 |
| OR5M11 | 2 | -0.822 | 65.5 | -0.822 | 90.9 |
| OR5M11 | 3 | 0.0232 | 82.3 | 0.267 | 85.8 |
| ITLN1 | 1 | 0.112 | 84.1 | 0.579 | 80.7 |
| ITLN1 | 2 | 1.63 | 114 | 1.01 | 97.9 |
| ITLN1 | 3 | -0.252 | 76.9 | -0.35 | 94.2 |
| RHOA | 1 | -1.34 | 55.2 | -1.12 | 82.7 |
| RHOA | 2 | -0.164 | 78.6 | -1.3 | 124 |
| RHOA | 3 | 0.0962 | 83.8 | -0.814 | 116 |
| RBAK | 1 | -0.204 | 77.8 | -0.705 | 105 |
| RBAK | 2 | 0.37 | 89.2 | 0.336 | 91.3 |
| RBAK | 3 | -1.22 | 57.5 | -1.27 | 89.9 |
| PBOV1 | 1 | -1.88 | 44.5 | -0.813 | 61.6 |
| PBOV1 | 2 | 2.93 | 140 | 2.24 | 86.8 |
| PBOV1 | 3 | 0.449 | 90.8 | -0.309 | 110 |
| TAF2 | 1 | 1.55 | 113 | 0.753 | 103 |
| TAF2 | 2 | -0.0929 | 80 | -0.587 | 104 |
| TAF2 | 3 | 0.537 | 92.6 | 0.603 | 88.2 |
| EPHA3 | 1 | -0.224 | 77.4 | -0.136 | 89.7 |
| EPHA3 | 2 | 0.15 | 84.9 | -0.357 | 104 |
| EPHA3 | 3 | -0.413 | 73.7 | -0.889 | 104 |
| ZMYND12 | 1 | 0.761 | 97 | 0.989 | 83.6 |
| ZMYND12 | 2 | -2.41 | 33.9 | -2.81 | 79.4 |
| ZMYND12 | 3 | 1.01 | 102 | 0.461 | 101 |
| KIF1B | 1 | 0.612 | 94.1 | -0.343 | 115 |
| KIF1B | 2 | -0.575 | 70.5 | -0.621 | 92.7 |
| KIF1B | 3 | 0.596 | 93.7 | 1.84 | 64.5 |

Copied from the entries so far (5 entries):
| gene | reagent | total luciferase, z-score | total luciferase, % of control | luciferase per cell, z-score | viable cells, % of control |
| --- | --- | --- | --- | --- | --- |
| RBAK | 2 | 0.37 | 89.2 | 0.336 | 91.3 |
| RBAK | 3 | -1.22 | 57.5 | -1.27 | 89.9 |
| PBOV1 | 1 | -1.88 | 44.5 | -0.813 | 61.6 |
| PBOV1 | 2 | 2.93 | 140 | 2.24 | 86.8 |
| PBOV1 | 3 | 0.449 | 90.8 | -0.309 | 110 |

The results go on.
| gene | reagent | total luciferase, z-score | total luciferase, % of control | luciferase per cell, z-score | viable cells, % of control |
| --- | --- | --- | --- | --- | --- |
| GNGT2 | 1 | -0.373 | 74.5 | 1.11 | 62.1 |
| GNGT2 | 2 | 1.22 | 106 | 0.99 | 91.5 |
| GNGT2 | 3 | 0.59 | 93.6 | 0.301 | 96.7 |
| ZBTB48 | 1 | -0.778 | 66.4 | -0.452 | 83.6 |
| ZBTB48 | 2 | -0.268 | 76.6 | 1.11 | 63.9 |
| ZBTB48 | 3 | -0.0859 | 80.2 | -0.394 | 99.4 |
| POP5 | 1 | -0.179 | 78.3 | 0.814 | 70.6 |
| POP5 | 2 | 0.00139 | 81.9 | 0.638 | 77.4 |
| POP5 | 3 | 0.889 | 99.6 | 0.83 | 89.4 |
| MR1 | 1 | -1.28 | 56.4 | -0.41 | 70.2 |
| MR1 | 2 | -0.915 | 63.7 | -0.906 | 90.3 |
| MR1 | 3 | 1.09 | 104 | 1.04 | 88 |
| SLC24A3 | 1 | -0.222 | 77.5 | -0.96 | 111 |
| SLC24A3 | 2 | 0.316 | 88.2 | -0.255 | 105 |
| SLC24A3 | 3 | -0.502 | 71.9 | 0.35 | 73.3 |
| AK5 | 1 | -1.89 | 44.3 | -1.47 | 72.8 |
| AK5 | 2 | 0.312 | 88.1 | -0.538 | 113 |
| AK5 | 3 | 0.432 | 90.5 | -0.104 | 104 |
| C1orf226 | 1 | -0.566 | 70.6 | 0.503 | 69.1 |
| C1orf226 | 2 | 0.403 | 89.9 | 1.24 | 72.5 |
| C1orf226 | 3 | -1.35 | 55.1 | -0.751 | 75 |
| HDAC2 | 1 | -0.866 | 64.7 | 0.194 | 68.7 |
| HDAC2 | 2 | -2.44 | 33.3 | -2.88 | 79.4 |
| HDAC2 | 3 | -0.283 | 76.3 | -0.407 | 94.9 |
